Assay [1] deals with Rab7, endogenous in HCT116 cells (human (endogenous in HCT116)) (UniProt P51149). Description: co-IP; HCT116 cells without transfection, treated with YQ456 for 24 h; lysate in IP buffer (150 mM NaCl, 0.1% Triton X-100, 50 mM Tris-HCl, 1 mM EDTA, pH 7.4); antibodies overnight, protein A/G, western blot; 4°C. (Immunoblotting shows a protein as a band on a membrane.)
Assay [2] has as its target HA-MYOF (myoferlin) (UniProt Q9NZM1). Description: co-IP; HEK293T cells co-transfected with tagged plasmids, treated with YQ456 for 24 h (doses); lysate in IP buffer (150 mM NaCl, 0.1% Triton X-100, 50 mM Tris-HCl, 1 mM EDTA, pH 7.4); precipitation by tag antibody beads (Flag M2 affinity gel or anti-HA agarose), western blot; 4°C.
In assay [3] the target is T1, Flag-Rab32 (UniProt Q13637).
T1 sequence: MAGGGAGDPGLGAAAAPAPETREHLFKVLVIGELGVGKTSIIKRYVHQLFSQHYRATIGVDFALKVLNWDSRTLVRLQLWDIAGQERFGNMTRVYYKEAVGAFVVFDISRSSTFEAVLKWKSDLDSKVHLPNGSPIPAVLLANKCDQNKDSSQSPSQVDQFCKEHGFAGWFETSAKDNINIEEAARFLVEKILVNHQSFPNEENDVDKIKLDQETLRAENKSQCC
The assay is described as above.

The chains behind the UniProt entries cited, without tags or fusion partners.
UniProt P51149: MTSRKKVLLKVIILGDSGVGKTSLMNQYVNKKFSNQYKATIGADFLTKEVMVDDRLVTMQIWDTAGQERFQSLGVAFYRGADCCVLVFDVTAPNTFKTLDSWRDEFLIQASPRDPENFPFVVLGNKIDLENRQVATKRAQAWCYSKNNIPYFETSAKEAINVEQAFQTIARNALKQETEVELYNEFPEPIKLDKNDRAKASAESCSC
UniProt Q9NZM1: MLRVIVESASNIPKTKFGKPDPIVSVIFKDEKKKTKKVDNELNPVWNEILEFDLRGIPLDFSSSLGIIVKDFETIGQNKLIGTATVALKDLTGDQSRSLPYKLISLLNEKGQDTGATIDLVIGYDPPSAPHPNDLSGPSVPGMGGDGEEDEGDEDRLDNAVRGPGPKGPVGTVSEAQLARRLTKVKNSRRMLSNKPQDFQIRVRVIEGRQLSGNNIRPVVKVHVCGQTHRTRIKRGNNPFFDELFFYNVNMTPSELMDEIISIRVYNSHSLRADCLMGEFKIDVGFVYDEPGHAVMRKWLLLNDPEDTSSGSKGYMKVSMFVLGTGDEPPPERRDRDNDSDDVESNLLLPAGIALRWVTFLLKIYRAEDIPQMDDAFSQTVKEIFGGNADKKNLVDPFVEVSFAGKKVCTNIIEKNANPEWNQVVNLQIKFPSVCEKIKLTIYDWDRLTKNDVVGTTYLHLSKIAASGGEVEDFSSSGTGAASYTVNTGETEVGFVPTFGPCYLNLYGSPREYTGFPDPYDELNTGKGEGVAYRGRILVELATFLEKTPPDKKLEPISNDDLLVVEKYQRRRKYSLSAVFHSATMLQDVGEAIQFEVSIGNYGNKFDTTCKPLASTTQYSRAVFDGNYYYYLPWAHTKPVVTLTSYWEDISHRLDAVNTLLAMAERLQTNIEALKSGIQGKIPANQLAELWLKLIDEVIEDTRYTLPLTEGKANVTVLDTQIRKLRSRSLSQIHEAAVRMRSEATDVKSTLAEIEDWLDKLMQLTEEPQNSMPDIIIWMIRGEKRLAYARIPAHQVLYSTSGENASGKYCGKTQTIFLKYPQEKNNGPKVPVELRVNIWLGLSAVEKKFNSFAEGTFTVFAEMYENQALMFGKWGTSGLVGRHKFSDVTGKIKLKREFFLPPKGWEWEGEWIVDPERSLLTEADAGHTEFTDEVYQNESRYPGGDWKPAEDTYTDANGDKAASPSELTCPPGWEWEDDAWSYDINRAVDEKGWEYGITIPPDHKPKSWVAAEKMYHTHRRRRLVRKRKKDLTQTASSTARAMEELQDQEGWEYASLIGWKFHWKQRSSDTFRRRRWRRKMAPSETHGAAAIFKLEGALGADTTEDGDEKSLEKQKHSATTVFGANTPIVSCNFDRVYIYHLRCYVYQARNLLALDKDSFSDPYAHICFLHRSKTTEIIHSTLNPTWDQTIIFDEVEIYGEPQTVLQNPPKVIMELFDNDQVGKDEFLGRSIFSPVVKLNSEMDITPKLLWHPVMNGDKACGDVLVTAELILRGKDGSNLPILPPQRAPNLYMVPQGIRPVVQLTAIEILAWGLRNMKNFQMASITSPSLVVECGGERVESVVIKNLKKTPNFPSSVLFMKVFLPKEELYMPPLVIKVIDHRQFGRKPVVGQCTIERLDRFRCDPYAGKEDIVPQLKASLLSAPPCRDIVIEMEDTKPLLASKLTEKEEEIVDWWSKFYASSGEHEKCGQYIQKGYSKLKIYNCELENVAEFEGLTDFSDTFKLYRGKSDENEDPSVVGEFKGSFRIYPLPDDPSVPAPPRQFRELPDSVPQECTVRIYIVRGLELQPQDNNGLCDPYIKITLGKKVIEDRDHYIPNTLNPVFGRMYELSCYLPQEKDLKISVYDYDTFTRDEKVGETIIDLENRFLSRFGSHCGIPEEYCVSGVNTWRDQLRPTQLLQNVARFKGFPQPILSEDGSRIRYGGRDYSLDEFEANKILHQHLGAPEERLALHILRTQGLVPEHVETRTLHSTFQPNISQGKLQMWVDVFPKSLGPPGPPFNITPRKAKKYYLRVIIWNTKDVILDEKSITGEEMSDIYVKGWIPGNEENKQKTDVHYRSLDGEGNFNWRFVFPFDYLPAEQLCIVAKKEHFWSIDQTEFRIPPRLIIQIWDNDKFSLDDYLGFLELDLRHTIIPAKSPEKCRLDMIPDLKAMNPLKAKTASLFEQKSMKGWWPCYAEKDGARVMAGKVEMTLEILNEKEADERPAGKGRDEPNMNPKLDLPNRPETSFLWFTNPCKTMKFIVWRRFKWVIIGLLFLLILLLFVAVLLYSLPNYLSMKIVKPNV
UniProt Q03135: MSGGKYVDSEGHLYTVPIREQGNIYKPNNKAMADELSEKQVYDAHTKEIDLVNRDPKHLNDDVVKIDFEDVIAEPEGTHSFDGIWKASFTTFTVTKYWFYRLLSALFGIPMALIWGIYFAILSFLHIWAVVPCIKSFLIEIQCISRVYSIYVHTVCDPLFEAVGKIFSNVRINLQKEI

The target of assay [4] is Flag-Rab7 (UniProt P51149). The assay is described as above.

Consider 4 substances from publication PMC7868085, “A potent and selective small molecule inhibitor of myoferlin attenuates colorectal cancer progression” (Clinical and Translational Medicine, 2021).

No constants are given. Whether binding was seen depends on the method and setting. Binding seen in cells or lysates may run through a third protein. Some entries that bind do so weakly or less than the wild type. For some assays here: Tags and fused reporters may be left off the sequences shown.

With “Myoferlin (MYOF), endogenous in HCT116 cells (from UniProt Q9NZM1 1-2061)”, the binding entry in assay [1] is “binds”. Take “Flag-CAV1 (caveolin 1) (from UniProt Q03135 1-178)”: in assay [2], the binding result is given as “binds”. Still for that read-out and setting: for Flag-Rab7 (from UniProt P51149 1-207) the value was “binds”.

For the substance “HA-MYOF (myoferlin) (from UniProt Q9NZM1 1-2061)”, the binding entry in assay [3] and in assay [4] was “binds” in each case.
